Experimental data: PubChem BioAssay AID1671195 (Yale University, 2021)
In all, the deposit lists about 22,000 reagents; shown is an unselected part. In the full data, about 1,510 (6.9%) got an active call. 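Active includes knockdowns raising or lowering LDL uptake; positive z-scores mean more uptake, negative mean less.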 Entries without a mark were called inactive. Reagent sequences are not shown.

- Aim: 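Genes whose knockdown alters LDL uptake in liver cancer cells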 (primary screen)
- Cells: human Huh7 hepatoma cells
- Knock-down reagent: siRNA pool against human genes, 18 nM
- Time to read-out: about 2 to 2.5 days of knockdown, then 8 h LDL uptake
- Treatment: DiI-labelled LDL at 30 µg/ml for 8 h, in lipoprotein-deficient serum medium
- Detection: 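Per-cell DiI-LDL intensity by automated imaging; well means scaled to the plate median and given as a robust z-score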
- Reading the numbers: robust z-score: higher = more LDL uptake after knockdown
- Active means: 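a gene counts as active if at least two replicate z-scores exceed ±2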

With knock-down of EPHX4, the screen gave robust z-score, replicate 1 = 0.904; robust z-score, replicate 2 = 0.726; robust z-score, replicate 3 = 0.965. After knock-down of BARX2 the results were robust z-score, replicate 1 = -1.25; robust z-score, replicate 2 = 0.354; robust z-score, replicate 3 = 0.665. RASL11B gave robust z-score, replicate 1 = -0.111; robust z-score, replicate 2 = 0.809; robust z-score, replicate 3 = 0.487. After knock-down of LINC00938, the record shows robust z-score, replicate 1 = -0.0658; robust z-score, replicate 2 = -0.372; robust z-score, replicate 3 = -0.213. Depletion of CWC15 resulted in: robust z-score, replicate 1 = -0.894; robust z-score, replicate 2 = -0.881; robust z-score, replicate 3 = -3. Depletion of AIRE gave: robust z-score, replicate 1 = -0.00116; robust z-score, replicate 2 = -0.0907; robust z-score, replicate 3 = 0.0264.

Silencing of SLC67A2 resulted in: robust z-score, replicate 1 = 2.71 (active); robust z-score, replicate 2 = 3.37; robust z-score, replicate 3 = 3.27.

Reformatted: results already given
{"gene": "CWC15", "robust z-score, replicate 1": -0.894, "robust z-score, replicate 2": -0.881, "robust z-score, replicate 3": -3}
{"gene": "AIRE", "robust z-score, replicate 1": -0.00116, "robust z-score, replicate 2": -0.0907, "robust z-score, replicate 3": 0.0264}
{"gene": "SLC67A2", "robust z-score, replicate 1": "2.71 (active)", "robust z-score, replicate 2": 3.37, "robust z-score, replicate 3": 3.27}

Further records follow:
SLC2A4RG showed robust z-score, replicate 1 = -0.094; robust z-score, replicate 2 = -0.248; robust z-score, replicate 3 = -0.298. Against SEMG2, the values are robust z-score, replicate 1 = -0.41; robust z-score, replicate 2 = -0.422; robust z-score, replicate 3 = -1.27. After knock-down of FGF6 the results were robust z-score, replicate 1 = 0.784; robust z-score, replicate 2 = -1.12; robust z-score, replicate 3 = 0.0188. Against RFTN1 the deposit lists robust z-score, replicate 1 = -0.209; robust z-score, replicate 2 = 1.58; robust z-score, replicate 3 = -0.64. Depletion of NLRP12 resulted in: robust z-score, replicate 1 = -0.926; robust z-score, replicate 2 = -0.414; robust z-score, replicate 3 = -0.762. Depletion of SPATA7 came out at: robust z-score, replicate 1 = -0.0925; robust z-score, replicate 2 = -1.39; robust z-score, replicate 3 = -1.02.

TBC1D27P scored robust z-score, replicate 1 = -0.507; robust z-score, replicate 2 = 1.06; robust z-score, replicate 3 = 0.54. TUBGCP3 showed robust z-score, replicate 1 = 1.04; robust z-score, replicate 2 = 0.681; robust z-score, replicate 3 = 0.622. Knock-down of OR1F1 gave: robust z-score, replicate 1 = 2.16; robust z-score, replicate 2 = 1.73; robust z-score, replicate 3 = 1.85.
